The list shows a part of the results.
Each compound was assayed on T1, CTL2-GFP (C. trachomatis L2/434/Bu, GFP-expressing). Details: bulk GFP, single well; 28.5 h, 10 µM; inhibitor.
T1 construct: L2/434/Bu, GFP-expressing
Design: species or system HeLa; Intracellular C. trachomatis growth in HeLa cells, bulk GFP fluorescence relative to DMSO

Compound | % of control remaining [%]
Cc1ccc2[nH]c(CN3CCC(O)C3)cc(=O)c2c1 (centres unmarked) [CBK307690] | 109.922
CCOc1cc(/C=C2\SC(=N)NC2=O)ccc1OC(=O)c1cccs1 [CBK265510] | 94.4177
Cc1cc(C)n(C(C)Cn2cncc2-c2cn(C)nc2C)n1 (centres unmarked) [CBK281792] | 148.853
COc1ccc(-c2cc(C(=O)N[C@@H](C)c3ccccc3)cnc2-c2cccc(C)c2)cc1 [CBK036635] | 113.474
O=C(COc1cccc(Cl)c1)NNC(=S)Nc1ccccc1 [CBK267180] | 162.71
Cc1ccc(CNC(=O)c2cnoc2-c2ccc(Br)cc2)cc1F [CBK154896] | 97.1364
COc1ccc2cc(C(=O)N3CCC(c4ccncc4)CC3)[nH]c2c1 [CBK283799] | 149.95
COc1ccccc1C1(NC(=O)Cn2nc(C)cc2C)CCCC1 [CBK283573] | 96.0143
Cc1ccc(-n2cccn2)cc1S(=O)(=O)N1CCNCC1C (centres unmarked) [CBK307344] | 161.804
CCc1nn(CC(=O)N2CCCC2)c(=O)c2cc3ccsc3n12 [CBK284120] | 139.921
O=C(Nc1nnc(C2CCCCC2)s1)c1ccccc1I [CBK057918] | 82.2081
CC(C)CNC(=O)N1CCN(Cc2ccccc2)CC1 [CBK155644] | 121.32
NS(=O)(=O)c1ccc(CCNCC2CCCCC2)cc1 [CBK288467] | 174.692
Oc1ccc(-c2cccc(N3CCN(c4ccccn4)CC3)n2)cc1 [CBK037028] | 147.369
O=C(Nc1cccc(O)c1)c1ccc2c(c1)C(=O)N(Cc1ccco1)C2=O [CBK268640] | 118.185
OCCCn1cc(CN2CCC(CO)C2)c2ccccc21 (centres unmarked) [CBK282114] | 146.671
CCNc1cncc(-c2cncc(OC)c2)n1 [CBK065366] | 107.466
Cn1c(SCCOc2ccccc2Cl)nnc1-c1ccncc1 [CBK265969] | 157.31
O=C(Nc1cccc(N2CCNCC2)c1)c1ccnc2ccccc12 [CBK029416T] | 111.03
CN(C)CCNCCOc1cccc([N+](=O)[O-])c1 [CBK267803C] | 111.397
O=C(OCc1ccc([N+](=O)[O-])cc1)C1CCN(S(=O)(=O)c2cccc3cccnc23)CC1 [CBK264430] | 128.625
c1ccc(N2CCN(c3cncc(-c4ccc5ccccc5c4)n3)CC2)nc1 [CBK066104] | 100.437
N#Cc1ccc(C(=O)N2C[C@@H]3C[C@H](C2)c2ccc(-c4cccc(C#N)c4)c(=O)n2C3)cc1 [CBK289187] | 115.099

Taken from above.
Value of O=C(COc1cccc(Cl)c1)NNC(=S)Nc1ccccc1 [CBK267180] under % of control remaining [%]: 162.71
Value of Cc1cc(C)n(C(C)Cn2cncc2-c2cn(C)nc2C)n1 (centres unmarked) [CBK281792] under % of control remaining [%]: 148.853

Source: article PMC12040169 (PLOS Biology, 2025)
